Some of the results follow.

These results are taken from the supplement of paper PMC8728848.

Experiment in all cases: glycan array binding signal (z-score within array); higher = stronger binding
What all share (details): glycan notation: IUPAC condensed, linker removed

In test [1] the target is Gal(b1-3)GlcNAc(b1-6)GalNAc. The method in brief:
(§1)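 Columns mapping to the same glycan were averaged after glycan names were converted to IUPAC-condensed notation. The data come from 3228 arrays in the Consortium for Functional Glycomics database, limited to those with an available protein sequence. Binding is reported as a within-array Z-score averaged across arrays of one protein sequence and across linkers.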

Test [2] addresses Gal(b1-3)GlcNAc(b1-6)[Gal(b1-3)]GalNAc. The method in brief: as §1
A further test deals with Gal(b1-3)GlcNAc6S. The method in brief:
as §1

For test [3], the target named is Gal(b1-3)[Fuc(a1-4)]GlcNAc. The method in brief:
as §1

Test [4] concerns the target Gal(b1-3)[Fuc(a1-4)]GlcNAc(b1-2)Man. The method in brief:
as §1

The target of test [5] is Gal(b1-3)[Fuc(a1-4)]GlcNAc(b1-2)Man(a1-3)[Gal(b1-3)[Fuc(a1-4)]GlcNAc(b1-2)Man(a1-6)]Man(b1-4)GlcNAc(b1-4)[Fuc(a1-6)]GlcNAc. The method, boiled down: as §1
Test [6] addresses Gal(b1-3)[Fuc(a1-4)]GlcNAc(b1-3)Gal(b1-3)[Fuc(a1-4)]GlcNAc. The method, boiled down:
as §1

In test [7] the target is Gal(b1-3)[Fuc(a1-4)]GlcNAc(b1-3)Gal(b1-4)[Fuc(a1-3)]GlcNAc. The method in brief:
as §1

The target in test [8] is Gal(b1-3)[Fuc(a1-4)]GlcNAc(b1-6)GalNAc. The method in brief:
as §1

The target of test [9] is Gal(b1-3)[GlcNAc(b1-6)]GalNAc. The method in brief: as §1
In test [10] the target is Gal(b1-3)[Neu5Ac(a2-6)]GalNAc. The method in brief:
as §1

Test [11] addresses Gal(b1-3)[Neu5Ac(a2-6)]GlcNAc(b1-4)Gal(b1-4)Glc. The method in brief:
as §1

The target in test [12] is Gal(b1-3)[Neu5Ac(b2-6)]GalNAc. The method, boiled down: as §1
The target in another test is Gal(b1-4)Gal. The method, boiled down: as §1
Test [13] has as its target Gal(b1-4)GalNAc(a1-3)[Fuc(a1-2)]Gal(b1-4)GlcNAc. The method in brief: as §1
Test [14] concerns the target Gal(b1-4)GalNAc(b1-3)[Fuc(a1-2)]Gal(b1-4)GlcNAc. The method, boiled down:
as §1

For a further test, the target named is Gal(b1-4)Glc. The method, boiled down: as §1
In the next test the target is Gal(b1-4)Glc6S. The method in brief: as §1
For a further test, the target named is Gal(b1-4)GlcNAc. The method in brief: as §1
Test [15] has as its target Gal(b1-4)GlcNAc(a1-6)Gal(b1-4)GlcNAc. The method in brief: as §1
The next test concerns the target Gal(b1-4)GlcNAc(b1-2)Man. The method in brief:
as §1

For test [16], the target named is Gal(b1-4)GlcNAc(b1-2)Man(a1-3)Man(b1-4)GlcNAc(b1-4)GlcNAc. The method, boiled down: as §1

B1: AT1G80310(18) (Arabidopsis thaliana), Q0WP36 (protein)
chain: METTTTPLLPGDRSRCGWLRRRLRLKNPLSSELSGAVGDLGTFIPIVLTLTLVSNLDLSTTLIFTGFYNIATGLLFDIPMPVQPMKSIAAVAVSESPHLTPSQIAAAGASTAATLLLLGATGAMSFLYNIIPLPVVRGVQLSQGLQFAFTAIKYVRFNYDTATLKPSSSPRIWLGLDGLILALAALLFIILSTGSGNDREAEDGDLAETSSNESQSRRRRLRLLSSIPSALIVFALGLVLCFIRDPSIFKDLKFGPSKFHILRISWDDWKIGFLRAAIPQIPLSVLNSVIAVCKLSNDLFDKELSATTVSISVGVMNLIGCWFGAMPVCHGAGGLAGQYRFGARSGLSVIFLGIGKLIVGLVFGNSFVRILSQFPIGILGVLLLFAGIELAMASKDMNSKEDSFIMLVCAAVSMTGSSAALGFGCGVVLYLLLKLRTLDCSSVTLFSRSSDESQVDSEAAPRDV
As for B1, the “glycan array binding signal (z-score)” value in [1] is 0.559; in test [2], 0.78; with Gal(b1-3)GlcNAc6S, -0.472; in test [3], 0.224; in [4] it was 2.96; in [5], -0.645. The “glycan array binding signal (z-score)” value is 1.19 in test [6]; -0.847 in [7]; -0.486 in test [8]; 0.239 in test [9]; 1.3 in test [10]; -0.56 in [11]. For the same molecule, the “glycan array binding signal (z-score)” value is 1.99 in test [12]; 1.12 in the test with Gal(b1-4)Gal; -0.77 in test [13]; -0.604 in [14]; -0.001 in the test with Gal(b1-4)Glc; -0.691 in the test with Gal(b1-4)Glc6S. In addition, the “glycan array binding signal (z-score)” value in the test with Gal(b1-4)GlcNAc was 1.65; in test [15], -0.491; with Gal(b1-4)GlcNAc(b1-2)Man, -0.609; in test [16] it was -0.223.
